Each structure is given as a SMILES string. Where “and” joins values, the source holds several entries; their conditions need not be identical. Equal values may be shown once. The list shows a part of the results. Some structures show a salt or complex split into parts, the way the source records it.

This assay concerns Aedes aegypti neuropeptide Y-like receptor 7 (NPYLR7). The experiment in a line: agonists of mosquito NPYLR7 receptor, primary screen, cell-based, Aedes aegypti, calcium fluorescence, mosquito biting behavior (AID 1259423).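 Note: 0% = vehicle and 100% = reference agonist at the receptor.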 Particulars: HEK293T NPYLR7/Galpha15, GCaMP6s calcium fluorescence; measured here: Max-Min RFU normalised activation; at 10 µM; stronger effect = higher value.
Regarding `CCOP1(=S)c2c(C)nn(CCC#N)c2N=C(c2ccccc2F)N1C` (stereo not drawn), the activation was -7.27%.

As for `Cc1ccc(NP(C)(=O)Oc2ccc(C(C)(C)C)cc2)cc1` (stereo not drawn), the activation turned out to be 1.11%.

Regarding `COc1cccc(OP(=NC(=S)N2CCOCC2)(C(C)(C)C)C(C)(C)C)c1`, the activation is 4.6%.

For the compound `CN(C(=O)Cc1ccccc1)[C@@H]1CC[C@]2(CCCO2)C[C@H]1N1CCCC1`, the activation came out at 19.2%.

Turning to `Cc1ccnc(NP2(=O)C=C(c3ccccc3)OC(c3ccccc3)=C2)c1`, the activation is -6.56%.

`CCOP1(=S)c2c(C)nn(-c3ccccc3)c2N=C(c2ccc(F)cc2)N1C` (stereo not drawn): the activation is -6.16%.

`NC(=O)Nc1ccc([As](=O)(O)O)cc1`: the activation was -10.9%.

Regarding `Cc1ccc(NP(C)(=O)Oc2ccc(C(C)C)cc2)cc1C` (stereo not drawn), the activation came out at 8.45%.

Turning to `CN(CCCl)Cc1cc2cc(I)ccc2s1`, the activation was -5.92%.

On to `COc1cc(-n2cnnn2)ccc1-n1cnnn1`, for which the activation came to 2%.

For the compound `CN(C(=O)Cc1ccc(Cl)c(Cl)c1)[C@@H]1CC[C@]2(CCCO2)C[C@H]1N1CCCC1`, the activation is -35.6%.

Take `Cc1ccc(NP(=O)(OCC(F)(F)F)OCC(F)(F)F)nc1`: the activation was found to be 15%.

For `CN1C(=O)C2C(N=C(N3CCOCC3)N2CCc2ccccc2)N(C)C1=O` (stereo not drawn), the activation was -5.82%.

Take `CC(=O)N(CCN(C(C)=O)[N+](=O)[O-])[N+](=O)[O-]`: the activation was -14.7%.

Take `CCOP(=O)(NC(=NC(C)c1ccccc1)NC(C)c1ccccc1)OCC` (stereo not drawn): the activation came out at 0.0822%.

For the compound `CN(CCCl)Cc1cc(Cl)c(NC2=NCCN2)c(Cl)c1`, the activation is -7.34%.

`C/C1=C2N=C(/C=C3N=C(/C(C)=C4\[N-]C(C)(C5N=C1C(C)(CCC(=O)NCC(C)OP(=O)(O)OC1C(CO)OC(n6cnc7cc(C)c(C)cc76)C1O)C5CC(N)=O)C(C)(CC(N)=O)C4CCC(N)=O)C(C)(CC(N)=O)C\3CCC(N)=O)C(C)(C)C/2CCC(N)=O.[C-]#N.[Co+3]` (stereo not drawn): the activation is -8.68%.

Turning to `CP(=O)(Nc1ccc(Br)cc1)Oc1ccc(Cl)cc1` (stereo not drawn), the activation is 12.3%.

As to `BrC1CSc2nc3ccccc3n2C1c1ccccc1` (stereo not drawn), the activation was 4.95%.

On to `CC1CCC(C(C)C)C(OP(=O)(Nc2ccccn2)c2ccccc2)C1` (stereo not drawn), for which the activation is 3.65% and -0.902%.

As for `Cc1n[n+]2c([nH]c1=O)SCC(Br)C2c1ccccc1` (stereo not drawn), the activation was -6.54%.

Take `Cc1ccc(Cl)cc1NP(C)(=O)Oc1ccccc1` (stereo not drawn): the activation was -12.3%.

Take `COc1ccc(OP(C)(=O)Nc2ccc(Cl)cc2)cc1` (stereo not drawn): the activation was found to be 9.49%.

On to `O=[N+]([O-])c1ccc(-c2csc(NP3(=O)C=C(c4ccccc4)OC(c4ccccc4)=C3)n2)cc1`, for which the activation was -11%.

For the compound `O=C1c2no[n+]([O-])c2C(=O)c2no[n+]([O-])c21`, the activation was -15.7%.

Consider `Nc1cc([N+](=O)[O-])cc([N+](=O)[O-])c1O`, for which the activation was -2.43%.

`CN1CC(=O)NC1=NP(=O)(OCc1ccccc1)OCc1ccccc1`: the activation was -1.89%.

For the compound `CCSP(=O)(c1ccccc1)c1ccccc1`, the activation amounted to 2.96%.
